# Reference: PubChem BioAssay AID1347423 (Functional Genomics Laboratory (NCATS/FGL), 2020)
# Out of some 52,000 sequences screened, about 210 (0.4%) were called active.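 Rule for the calls: active = gene whose silencing raises cell survival under the drug, median off-target-corrected z-score across its silencing RNAs 2 or more; inactive = the rest.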 The list shows a part of the results.
# Assay: Resistance to Poly (ADP-Ribose) Polymerase inhibitor: Gene Identification via Genome-wide siRNA Screen
# Conditions: mouse BRCA2 R2336H ES cells, olaparib, CellTiter-Glo viability; stronger effect = higher value
# Method in brief: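 Mouse BRCA2 R2336H ES cells were reverse-transfected with siRNA (20 nM final), treated at 48 h with 500 nM olaparib, and read by CellTiter-Glo after 72 h. Scores: MAD-based z per siRNA, median per gene, seed off-target correction.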
row,Sequence,z-score
1,GCCGAGCCAUAUGACACUATT against Tlk2,inactive: 2.5
2,GGAACGUGAAUCUACAGCATT against 1700065I17Rik,inactive: -0.494
3,CCCAACUUUGGGCUUGUCUTT against 2610111M03Rik,inactive: -2.37
4,GGCCAACAAGAUUCUAGAGTT against 1110028E10Rik,inactive: -1.83
5,GCUCCAUUGGGUGUGAACATT against Apg4d,inactive: -2.56
6,GGCCAUGAUUUACGACGACTT against C1qtnf4,inactive: 1.38
7,CCGUGAAAGUACAUUGUAUTT against E330009J07Rik,inactive: -0.393
8,GCCCUUGGAAACACCAAUATT against Mustn1,inactive: 1.38
9,GGAACAAGUGUCUGACAGUTT against 0610039A15Rik,inactive: -0.636
10,GGAGCUUCAGGUGAAGCGATT against 2010309E21Rik,inactive: 0.0859
11,GGCCUCUACUUCUUUGAAUTT against Cklfsf6,inactive: -0.343
12,CCGAGGAUGGCCACAUAUGTT against Tmprss8,inactive: -1.43
13,CCUAGUGAGCACUGUACUUTT against Olfr988,inactive: 0.118
14,GCCCAUUCAUAUGUAUAUCTT against Clpp,inactive: -0.332
15,GCAGUUAUAUGCUCAAGAUTT against Pik3r3,inactive: 1.38
16,GGCUUCAAUCCUGACGAGATT against 6.33E+19,inactive: 0.196
17,GGUGGACUUUAGUCCUGUGTT against Bpil3,inactive: -1.62
18,GGACAUGAGUUACAUGACATT against Galnt5,inactive: 1.41
19,GCAUGAGAGCCUAUGCAGCTT against Man2b2,inactive: 1.54
20,GCUGGUACAGCGUAUACCATT against AW555464,inactive: 0.645
21,AAGCUUCAACAUCAGUUUGTT against Olfr1392,inactive: 0.106
22,CGGCCUGUAAGAACAAACATT against Cdc37l1,inactive: 1.89
23,GGUUGUGCUGAAGAAUUCUTT against Cspg4,inactive: -2.32
24,GGAGACAGAAUCAUAGUUATT against Sh3yl1,inactive: -1.21
25,GGAAAAUAUGUGUAGGGAATT against Nkx2-2,inactive: 0.407
26,GGAAAAGGAAUUCUCCAGATT against 6620401K05Rik,inactive: -1.08

row,Sequence,z-score
1,GGAAAUCAACAGCUCACAUTT against C76566,inactive: -0.926
2,CCUGUUUAAACUCUGCGGATT against Vit,inactive: 0.563
3,GGAGAAAGGAGACCUAAAGTT against Mmab,inactive: -1.27
4,GCAGCUUGACCAAGUCCAUTT against D11Ertd498e,inactive: 0.992
5,GGACAAUUGAGGAACUUCUTT against Tkt,inactive: 1.81
6,CGAUAAAAGACCCAAAUUATT against Emx2,inactive: 0.942
7,GCUGGGAUAUUACAUUCUATT against 9030625G08Rik,inactive: -1.3
8,GGUGGACUCAAAAUUAGAATT against 1810054D07Rik,inactive: 0.765
9,CCAACUCGAAGCAAUAUGCTT against Morf4l2,inactive: 0.711
10,GGUUUCCAUCUGAAUAAAATT against Tmem8,inactive: -0.497
11,GCACUGUUGUACUUGACUGTT against Fancg,inactive: 0.201
12,CCACCACCAUCUAAAUAUATT against 2610318C08Rik,inactive: 0.95
13,GGCCAUCCAAGCAUGAGUUTT against 1110032A13Rik,inactive: -0.734
14,GGCUCAUCUACCACGAGGUTT against Sprrl10,inactive: -0.239
15,GGCUUCAAACAUCCGUUCGTT against Foxb2,inactive: -0.0682
16,GGGCUUACUGCUUAAUAGATT against 4833415N24Rik,inactive: -0.00576
17,GGAUGAAGACUAAUACUAATT against Ltbp2,inactive: 0.0321
18,GGAGAACCUUGUGGACAAGTT against Xpnpep1,inactive: -0.55
19,GGCGAAUUGUAUUUGAAAGTT against Lactb,inactive: 0.645
20,CGAGAAAGUAUUGACCGAGTT against Anxa5,inactive: -0.935
21,GCAGAAUGCUCACGUGGAUTT against C530030I18Rik,inactive: 0.117
22,GCCUCUGAGUUGCAUGAGUTT against Ppp2r5b,active: 2.37
23,GGACAGCAGCGUGAACUAUTT against Cart1,inactive: -0.559
24,GGAUCUGGAGGACGAUUCATT against 1700020L24Rik,inactive: 0.338
25,GGAGAAAACUUAGAUUACCTT against Ppil4,inactive: -0.486
26,CCUGUCGACCUUAUUGUAATT against V1ri2,inactive: -0.857

row,Sequence,z-score
1,GCCUAUAUAUGGUCUAUAUTT against Slc26a2,inactive: -0.353
2,GGCAUGUACCAUGUUUUUGTT against Wdr13,inactive: 0.853
3,GGAUUACCAGUCUGGAAGUTT against Eef1d,inactive: 0.0783
4,GGUUUCUAUAAAUCUCCCUTT against Eif4b,inactive: -0.214
5,GGGUUUCUGAGAUUACUGCTT against Ovca2,inactive: 0.302
6,GGUCAAGAUGCAGAAAGGUTT against Odf2,inactive: 0.6
7,GGUGAUUGUUAGAGUUAAATT against Syt4,inactive: 0.95
8,GGAAAUUGUACUCUCCACATT against 2700099C19Rik,inactive: -0.425
9,GGUAAAGACUGUGUCAUUUTT against 2600014M03Rik,inactive: 0.692
10,GGGCUUCUUACCAGUCAGATT against Cdca1,inactive: -2.01
11,GGAACAACUGUAAGUCCACTT against Kng2,inactive: -0.00724
12,GGUGCUUUCUGGAUGAAGATT against 6330407G11Rik,inactive: -0.774
13,GCUUUGUCUCAAAGAAAAATT against Olfr145,inactive: 0.165
14,GGCUUAAGUAUUUUUCUGATT against Fts,inactive: 0.246
15,GGAGGUAGAAAAAACACAATT against 4930511A21Rik,inactive: 0.686
16,CCCGAUUGAUAUUCCAAACTT against Piwil1,inactive: -0.249
17,GGAUCCUUACUACAGAUUUTT against Manba,inactive: -1.08
18,GCAUCAAACAAUUUGUCGUTT against Ptgis,inactive: 0.827
19,GGACAAACAGGGAGAAAGATT against Mogat2,inactive: -0.581
20,GGAAGUGGUGAAGAAACAUTT against Hspcb,inactive: -0.855
21,CCUUAAAACUGAUUACACCTT against Bach2,inactive: 0.0765
22,CCAUUGUUUGGACUGUUCCTT against Olfr1066,inactive: 0.248
23,GGUCUUUAGCAGAGAAAAUTT against B230312I18Rik,inactive: -1.82
24,CCUGAACCGUCGUCAACUUTT against Atp5d,inactive: -1.7
25,GGAGCAUCAUCUGAGCGAGTT against Idh3b,inactive: -1.35
26,GCUGAGUCCAUUGAAGAAGTT against 1700081D17Rik,inactive: -1.98

row,Sequence,z-score
1,GCUAUUUCACCGUCAGAAUTT against MGC86034,inactive: -1.31
2,GCUAGGAUAACCCAGAUUATT against Dph2l2,inactive: 0.852
3,GCUAUGAGUUUGGAAAAAGTT against Tsga2,inactive: 0.775
4,GGUGGCAGACAUUUCAACATT against D12Ertd647e,inactive: -0.074
5,GCCAUGGUACACUACAUCUTT against BC047207,inactive: 1.3
6,UCCAUACUACUCAUCAAAUTT against Olfr68,inactive: 0.34
7,GGAAAUGCUUCUAAAGUCATT against Actg2,inactive: 0.133
8,GCCUAGAACUGAUGGAGCUTT against Trp73,inactive: 0.982
9,GGCUUUUUCAACAUGUGGATT against Olfr853,inactive: 1.02
10,GCGAGGACAACGGAUUUUATT against E130309B19Rik,inactive: 0.367
11,GGACUUCCACUCACGUUACTT against Ppp2r3a,inactive: 0.371
12,GGGUUUUUCAUAAACAAAGTT against Pdcd1lg2,inactive: 0.332
13,GCCUACGAAGUCUUGUCAGTT against Dnajb8,inactive: -0.12
14,CCCUAAGACUAUGGAGGCCTT against 4930451F05Rik,inactive: 0.362
15,GCAAGAUCUUGAGUUUUGATT against Wnt3,inactive: 0.0548
16,GGUUCUCCCAGACCAAAGATT against Cables1,inactive: -0.811
17,GGAGACUAAGGAGGUUUAUTT against Ruvbl1,inactive: -2.98
18,GGAAAUGUCUUAUGAUAACTT against Col5a1,inactive: -0.26
19,GCCGAUGACACUAUCUACCTT against Cryz,inactive: -0.769
20,GGAGCCAACAACAACUCCUTT against Rbm9,inactive: 0.45
21,CGUCCAGAGCUACGUAUGCTT against Olfr1490,inactive: 0.402
22,GCUUCUACGCGGCUACUUUTT against Rbed1,inactive: -0.0404
23,GGCCAAAGUGGUGUGUUUCTT against Mta1,inactive: 0.138
24,GGGCAGUCAACUUAGUGAGTT against Olfr1208,inactive: -0.325
25,GGGUCAUGUACUUCUUUAUTT against Mip,inactive: 0.536

# Individual results from the results shown:
# z-score with GCCAUGGUACACUACAUCUTT against BC047207 reads inactive: 1.3
# z-score with GGUGGCAGACAUUUCAACATT against D12Ertd647e reads inactive: -0.074
# z-score with GGUUCUCCCAGACCAAAGATT against Cables1 reads inactive: -0.811

# Some of the entries so far, with tabs.
row	Sequence	z-score
8	GCCUAGAACUGAUGGAGCUTT against Trp73	inactive: 0.982
10	GCGAGGACAACGGAUUUUATT against E130309B19Rik	inactive: 0.367
16	GGUUCUCCCAGACCAAAGATT against Cables1	inactive: -0.811
17	GGAGACUAAGGAGGUUUAUTT against Ruvbl1	inactive: -2.98
